Measurements taken from the supplement of paper PMC8728848.
The other results are listed elsewhere or left out.

Experiments:
Test in all cases: glycan array binding signal (z-score within array); higher = stronger binding
Conditions in all cases: glycan notation: IUPAC condensed, linker removed
[1] = target: Neu5Ac(a2-3)GalNAc
Method in brief: (§1)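 Arrays were curated from the Consortium for Functional Glycomics database, 3228 in total, and kept only where the protein sequence was available. Binding is expressed as a within-array Z-score. This score was averaged across arrays of the same protein sequence at different concentrations or buffers and across linkers, and negative values can be read as non-binding.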

[2] = target: Neu5Ac(a2-3)GalNAc(b1-4)GlcNAc
Method in brief: as §1

[3] = target: Neu5Ac(a2-3)[GalNAc(b1-4)]Gal(b1-4)Glc
Method in brief: as §1

[4] = target: Neu5Ac(a2-3)[GalNAc(b1-4)]Gal(b1-4)GlcNAc
Method in brief: as §1

[5] = target: Neu5Ac(a2-3)[GalNAc(b1-4)]Gal(b1-4)GlcNAc(b1-3)GalNAc
Method in brief: as §1

[6] = target: Neu5Ac(a2-3)[Neu5Ac(a2-6)]GalNAc
Method in brief: as §1

[7] = target: Neu5Ac(a2-6)Gal
Method in brief: as §1

[8] = target: Neu5Ac(a2-6)Gal(b1-3)GlcNAc(b1-3)[Gal(b1-4)GlcNAc(b1-6)]Gal(b1-4)Glc
Method in brief: as §1

[9] = target: Neu5Ac(a2-6)Gal(b1-4)Glc
Method in brief: as §1

[10] = target: Neu5Ac(a2-6)Gal(b1-4)GlcNAc
Method in brief: as §1

[11] = target: Neu5Ac(a2-6)Gal(b1-4)GlcNAc(b1-2)Man
Method in brief: as §1

[12] = target: Neu5Ac(a2-6)Gal(b1-4)GlcNAc(b1-2)Man(a1-3)Man(b1-4)GlcNAc(b1-4)GlcNAc
Method in brief: as §1

[13] = target: Neu5Ac(a2-6)Gal(b1-4)GlcNAc(b1-2)Man(a1-3)[Gal(b1-4)GlcNAc(b1-2)Man(a1-6)]Man(b1-4)GlcNAc(b1-4)GlcNAc
Method in brief: as §1

[14] = target: Neu5Ac(a2-6)Gal(b1-4)GlcNAc(b1-2)Man(a1-3)[GlcNAc(b1-2)Man(a1-6)]Man(b1-4)GlcNAc(b1-4)GlcNAc
Method in brief: as §1

[15] = target: Neu5Ac(a2-6)Gal(b1-4)GlcNAc(b1-2)Man(a1-3)[GlcNAc(b1-4)][Neu5Ac(a2-6)Gal(b1-4)GlcNAc(b1-2)Man(a1-6)]Man(b1-4)GlcNAc(b1-4)GlcNAc
Method in brief: as §1

[16] = target: Neu5Ac(a2-6)Gal(b1-4)GlcNAc(b1-2)Man(a1-3)[Man(a1-6)]Man(b1-4)GlcNAc(b1-4)GlcNAc
Method in brief: as §1

[17] = target: Neu5Ac(a2-6)Gal(b1-4)GlcNAc(b1-2)Man(a1-3)[Neu5Ac(a2-3)Gal(b1-4)GlcNAc(b1-2)Man(a1-6)]Man(b1-4)GlcNAc(b1-4)GlcNAc
Method in brief: as §1

[18] = target: Neu5Ac(a2-6)Gal(b1-4)GlcNAc(b1-2)Man(a1-3)[Neu5Ac(a2-6)Gal(b1-4)GlcNAc(b1-2)Man(a1-6)]Man(b1-4)GlcNAc(b1-4)GlcNAc
Method in brief: as §1

[19] = target: Neu5Ac(a2-6)Gal(b1-4)GlcNAc(b1-2)Man(a1-3)[Neu5Ac(a2-6)Gal(b1-4)GlcNAc(b1-2)Man(a1-6)]Man(b1-4)GlcNAc(b1-4)[Fuc(a1-6)]GlcNAc
Method in brief: as §1

[20] = target: Neu5Ac(a2-6)Gal(b1-4)GlcNAc(b1-2)Man(a1-6)Man(b1-4)GlcNAc(b1-4)GlcNAc
Method in brief: as §1

[21] = target: Neu5Ac(a2-6)Gal(b1-4)GlcNAc(b1-2)Man(a1-6)[Gal(b1-4)GlcNAc(b1-2)Man(a1-3)]Man(b1-4)GlcNAc(b1-4)GlcNAc
Method in brief: as §1

[22] = target: Neu5Ac(a2-6)Gal(b1-4)GlcNAc(b1-2)Man(a1-6)[GlcNAc(b1-2)Man(a1-3)]Man(b1-4)GlcNAc(b1-4)GlcNAc
Method in brief: as §1

[23] = target: Neu5Ac(a2-6)Gal(b1-4)GlcNAc(b1-2)Man(a1-6)[Man(a1-3)]Man(b1-4)GlcNAc(b1-4)GlcNAc
Method in brief: as §1

[24] = target: Neu5Ac(a2-6)Gal(b1-4)GlcNAc(b1-2)[Neu5Ac(a2-6)Gal(b1-4)GlcNAc(b1-4)]Man(a1-3)[GlcNAc(b1-4)][Neu5Ac(a2-6)Gal(b1-4)GlcNAc(b1-2)[Neu5Ac(a2-6)Gal(b1-4)GlcNAc(b1-6)]Man(a1-6)]Man(b1-4)GlcNAc(b1-4)GlcNAc
Method in brief: as §1

[25] = target: Neu5Ac(a2-6)Gal(b1-4)GlcNAc(b1-2)[Neu5Ac(a2-6)Gal(b1-4)GlcNAc(b1-4)]Man(a1-3)[GlcNAc(b1-4)][Neu5Ac(a2-6)Gal(b1-4)GlcNAc(b1-4)Man(a1-6)]Man(b1-4)GlcNAc(b1-4)GlcNAc
Method in brief: as §1

[26] = target: Neu5Ac(a2-6)Gal(b1-4)GlcNAc(b1-2)[Neu5Ac(a2-6)Gal(b1-4)GlcNAc(b1-6)]Man(a1-6)[Neu5Ac(a2-6)Gal(b1-4)GlcNAc(b1-2)Man(a1-3)][GlcNAc(b1-4)]Man(b1-4)GlcNAc(b1-4)GlcNAc
Method in brief: as §1

[27] = target: Neu5Ac(a2-6)Gal(b1-4)GlcNAc(b1-3)Gal(b1-3)GlcNAc
Method in brief: as §1

[28] = target: Neu5Ac(a2-6)Gal(b1-4)GlcNAc(b1-3)Gal(b1-4)GlcNAc
Method in brief: as §1

[29] = target: Neu5Ac(a2-6)Gal(b1-4)GlcNAc(b1-3)Gal(b1-4)GlcNAc(b1-2)Man(a1-3)[Neu5Ac(a2-6)Gal(b1-4)GlcNAc(b1-3)Gal(b1-4)GlcNAc(b1-2)Man(a1-6)]GalNAc
Method in brief: as §1

[30] = target: Neu5Ac(a2-6)Gal(b1-4)GlcNAc(b1-3)Gal(b1-4)GlcNAc(b1-3)Gal(b1-4)GlcNAc
Method in brief: as §1

[31] = target: Neu5Ac(a2-6)Gal(b1-4)GlcNAc(b1-3)Gal(b1-4)GlcNAc(b1-3)Gal(b1-4)GlcNAc(b1-2)Man(a1-3)[Neu5Ac(a2-6)Gal(b1-4)GlcNAc(b1-3)Gal(b1-4)GlcNAc(b1-3)Gal(b1-4)GlcNAc(b1-2)Man(a1-6)]GalNAc
Method in brief: as §1

[32] = target: Neu5Ac(a2-6)Gal(b1-4)GlcNAc(b1-3)Gal(b1-4)GlcNAc(b1-3)GalNAc
Method in brief: as §1

[33] = target: Neu5Ac(a2-6)Gal(b1-4)GlcNAc(b1-3)Gal(b1-4)GlcNAc(b1-3)[Neu5Ac(a2-6)Gal(b1-4)GlcNAc(b1-3)Gal(b1-4)GlcNAc(b1-6)]GalNAc
Method in brief: as §1

[34] = target: Neu5Ac(a2-6)Gal(b1-4)GlcNAc(b1-3)Gal(b1-4)GlcNAc(b1-6)[Gal(b1-3)]GalNAc
Method in brief: as §1

[35] = target: Neu5Ac(a2-6)Gal(b1-4)GlcNAc(b1-3)Gal(b1-4)[Fuc(a1-3)]GlcNAc(b1-3)Gal(b1-4)[Fuc(a1-3)]GlcNAc
Method in brief: as §1

[36] = target: Neu5Ac(a2-6)Gal(b1-4)GlcNAc(b1-3)GalNAc
Method in brief: as §1

[37] = target: Neu5Ac(a2-6)Gal(b1-4)GlcNAc(b1-3)[Neu5Ac(a2-6)Gal(b1-4)GlcNAc(b1-6)]GalNAc
Method in brief: as §1

B1: Clec18Av1 (Homo sapiens), A5D8T8 (protein)
chain: MLHPETSPGRGHLLAVLLALLGTAWAEVWPPQLQEQAPMAGALNRKESFLLLSLHNRLRSWVQPPAADMRRLDWSDSLAQLAQARAALCGTPTPSLASGLWRTLQVGWNMQLLPAGLVSFVEVVSLWFAEGQRYSHAAGECARNATCTHYTQLVWATSSQLGCGRHLCSAGQAAIEAFVCAYSPRGNWEVNGKTIVPYKKGAWCSLCTASVSGCFKAWDHAGGLCEVPRNPCRMSCQNHGRLNISTCHCHCPPGYTGRYCQVRCSLQCVHGRFREEECSCVCDIGYGGAQCATKVHFPFHTCDLRIDGDCFMVSSEADTYYRARMKCQRKGGVLAQIKSQKVQDILAFYLGRLETTNEVIDSDFETRNFWIGLTYKTAKDSFRWATGEHQAFTSFAFGQPDNHGFGNCVELQASAAFNWNDQRCKTRNRYICQFAQEHISRWGPGS
glycan array binding signal (z-score) [1]: -0.846
glycan array binding signal (z-score) [2]: -0.813
glycan array binding signal (z-score) [3]: 2.19
glycan array binding signal (z-score) [4]: -0.355
glycan array binding signal (z-score) [5]: 2.69
glycan array binding signal (z-score) [6]: -0.853
glycan array binding signal (z-score) [7]: 1.19
glycan array binding signal (z-score) [8]: -0.018
glycan array binding signal (z-score) [9]: -0.776
glycan array binding signal (z-score) [10]: -0.105
glycan array binding signal (z-score) [11]: -0.821
glycan array binding signal (z-score) [12]: -0.503
glycan array binding signal (z-score) [13]: 0.598
glycan array binding signal (z-score) [14]: -0.453
glycan array binding signal (z-score) [15]: -0.604
glycan array binding signal (z-score) [16]: -0.169
glycan array binding signal (z-score) [17]: 0.532
glycan array binding signal (z-score) [18]: 0.043
glycan array binding signal (z-score) [19]: 3.58
glycan array binding signal (z-score) [20]: 0.309
glycan array binding signal (z-score) [21]: 0.445
glycan array binding signal (z-score) [22]: 4.86
glycan array binding signal (z-score) [23]: -0.05
glycan array binding signal (z-score) [24]: 1.65
glycan array binding signal (z-score) [25]: 1.9
glycan array binding signal (z-score) [26]: -0.487
glycan array binding signal (z-score) [27]: -0.587
glycan array binding signal (z-score) [28]: -0.501
glycan array binding signal (z-score) [29]: 1.25
glycan array binding signal (z-score) [30]: -0.526
glycan array binding signal (z-score) [31]: -0.445
glycan array binding signal (z-score) [32]: 0.575
glycan array binding signal (z-score) [33]: -0.003
glycan array binding signal (z-score) [34]: 0.138
glycan array binding signal (z-score) [35]: -0.159
glycan array binding signal (z-score) [36]: 0.25
glycan array binding signal (z-score) [37]: -0.072
